Assay results taken from article PMC3983681.
No constants are given. Whether binding was seen depends on the method and setting. For some assays here: In cells and extracts the contact can be indirect. Some entries that bind do so weakly or less than the wild type. Tags and fused reporters may be left off the sequences shown.

T1: Hmo1 (yeast two-hybrid fusion) (S. cerevisiae) (UniProt Q03973)
T1 sequence: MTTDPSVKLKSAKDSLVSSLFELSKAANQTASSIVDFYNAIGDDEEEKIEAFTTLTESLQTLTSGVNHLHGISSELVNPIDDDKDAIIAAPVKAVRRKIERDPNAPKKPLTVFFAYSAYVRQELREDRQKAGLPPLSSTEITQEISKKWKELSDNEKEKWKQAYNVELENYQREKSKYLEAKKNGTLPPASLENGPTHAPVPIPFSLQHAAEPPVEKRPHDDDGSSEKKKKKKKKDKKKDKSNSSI

T2: GST-Hmo1 (S. cerevisiae) (UniProt Q03973)
T2 sequence: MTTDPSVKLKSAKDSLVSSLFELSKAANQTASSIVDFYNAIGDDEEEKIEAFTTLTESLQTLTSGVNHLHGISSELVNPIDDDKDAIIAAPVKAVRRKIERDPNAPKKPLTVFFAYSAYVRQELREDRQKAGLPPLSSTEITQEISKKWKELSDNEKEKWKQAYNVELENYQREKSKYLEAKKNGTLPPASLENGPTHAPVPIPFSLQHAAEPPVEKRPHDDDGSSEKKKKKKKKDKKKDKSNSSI


Legend:
[1] = target: T1, Hmo1 (yeast two-hybrid fusion) (S. cerevisiae); assay: two-hybrid; yeast two-hybrid (candidate approach and screens; screening performed by Hybrigenics Services)
GST-Hmo1 (S. cerevisiae) = target: T2, GST-Hmo1 (S. cerevisiae); assay: pull-down; about 5 ug GST-Hmo1 immobilized on glutathione-Sepharose 4B beads, incubated with about 2.5 mg total lysate of Elg1-FLAG yeast cells (G1 arrest, release with or without 0.033% MMS for 20 min) for 2 h at 4°C in Tris pH 7.5, 150 mM NaCl, 1 mM DTT, 1 mM EDTA, 10% glycerol, 0.1% Triton X-100, with or without 0.5 mg/ml ethidium bromide; washes up to 500 mM NaCl; anti-FLAG immunoblot; only the target purified

Row | binding [1] | binding (GST-Hmo1 (S. cerevisiae)) | Binder
1 | binds | – | Elg1 (yeast two-hybrid fusion) (protein, UniProt Q12050 1-791) MKRHVSLSDILTGNKRKVRRQDALQITIDDENDTESGTFDARTAKHDDSSVIFLNHSVVKPIEAVSTNHKSAKEFLMTKRTKEKCDDDDDDLIVISDKSPKSETNCSKIALSQEHEDDISIISTSRIKSSLLNERASKIKNFLKHETTDTFKRLNSISKLNEIEPPLPLHQSIFPVGDKELSDRSVDIPLPFRTIPPLNHNFLPSDYESLKDKNSASCIPVRYQAPVLLGTNIKRNTTLTWPQLFKPVTLKQVLIEPKLKLRIKNWIETSFHTLEKPTLRNRLLNRINPNKQQGSGDELANFIVPDLEEDENLRPDFYRNGEANSSLSEFVPLMILHGNSIGKKTLIQTIMREIAGDDNSYQIYEVNSNMNRSKKDLLDILLDFTTTHYVKDSSKRKSDYGLVLFNDVDVLFKEHDRGYWAMISKLCEFSRRPLVLTCKDLSLVPSELIALASEQNSLFHTKKISTSTVYAFLTKYLKSLEIEVCDDWLRDVVKQNNADIRKCLMHLQFWCVDTEADLISSKNRLPVLTSTLGSSVKDISQLTDLLSINDVIGQATLNRSMVRQEIDSTTMTPEKVNTFQDQNLDDEMKLKFDYVIDYKLHLNDPNRQPLLPFELNIYQHIQEQLEARYSYVREANHRLDNEYLVNRFKKMTESTLNFLASRIPKYDHLQSARRTRNSKKISDILNQFKGIYNDETLNENAEIDLLSATTQQIKAEINPFVFEIAKSDANVKNENKQIFELHSENVSERRYKDLVYQLSQEGVLKNVWFNADPSIVVRKWEHLHSGFSKNK
2 | – | binds | Elg1-FLAG (protein, UniProt Q12050 1-791) MKRHVSLSDILTGNKRKVRRQDALQITIDDENDTESGTFDARTAKHDDSSVIFLNHSVVKPIEAVSTNHKSAKEFLMTKRTKEKCDDDDDDLIVISDKSPKSETNCSKIALSQEHEDDISIISTSRIKSSLLNERASKIKNFLKHETTDTFKRLNSISKLNEIEPPLPLHQSIFPVGDKELSDRSVDIPLPFRTIPPLNHNFLPSDYESLKDKNSASCIPVRYQAPVLLGTNIKRNTTLTWPQLFKPVTLKQVLIEPKLKLRIKNWIETSFHTLEKPTLRNRLLNRINPNKQQGSGDELANFIVPDLEEDENLRPDFYRNGEANSSLSEFVPLMILHGNSIGKKTLIQTIMREIAGDDNSYQIYEVNSNMNRSKKDLLDILLDFTTTHYVKDSSKRKSDYGLVLFNDVDVLFKEHDRGYWAMISKLCEFSRRPLVLTCKDLSLVPSELIALASEQNSLFHTKKISTSTVYAFLTKYLKSLEIEVCDDWLRDVVKQNNADIRKCLMHLQFWCVDTEADLISSKNRLPVLTSTLGSSVKDISQLTDLLSINDVIGQATLNRSMVRQEIDSTTMTPEKVNTFQDQNLDDEMKLKFDYVIDYKLHLNDPNRQPLLPFELNIYQHIQEQLEARYSYVREANHRLDNEYLVNRFKKMTESTLNFLASRIPKYDHLQSARRTRNSKKISDILNQFKGIYNDETLNENAEIDLLSATTQQIKAEINPFVFEIAKSDANVKNENKQIFELHSENVSERRYKDLVYQLSQEGVLKNVWFNADPSIVVRKWEHLHSGFSKNK
